# Only results without a clear call are listed here; the source files them as inconclusive.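 How the source made its calls: active means fitted curve reaches 40% activation below the top valid dose in every replicate test, signal rising; inconclusive means replicate tests disagree on the call; inactive means all replicate tests inactive, including opposite-direction effects.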
# Test: luciferase reporter signal increase in glioma cells, dose response, N-linked glycosylation inhibitor project, D54 ERlucT glioma cells, dry powder, set 6 (AID 1053121)
# Conditions: NLG luciferase reporter gain-of-signal, 24 h; at 19.5 µM (top of the series)
smiles,measurement,value
COc1ccc2nc(NC(=O)c3cc(S(=O)(=O)N(C)C)ccc3N3CCCC3)sc2c1,activation (reporter increase),inconclusive: 118%
